{"source": "paper PMC7521653", "about": "“Structural analysis of the LDL receptor–interacting FERM domain in the E3 ubiquitin ligase IDOL reveals an obscured substrate-binding site” (The Journal of Biological Chemistry, 2020)", "binders": {"B1": {"name": "IDOL FERM^278 (residues 1-278) (domain or fragment, UniProt Q8WY64 1-278)", "chain": "MLCYVTRPDAVLMEVEVEAKANGEDCLNQVCRRLGIIEVDYFGLQFTGSKGESLWLNLRNRISQQMDGLAPYRLKLRVKFFVEPHLILQEQTRHIFFLHIKEALLAGHLLCSPEQAVELSALLAQTKFGDYNQNTAKYNYEELCAKELSSATLNSIVAKHKELEGTSQASAEYQVLQIVSAMENYGIEWHSVRDSEGQKLLIGVGPEGISICKDDFSPINRIAYPVVQMATQSGKNVYLTVTKESGNSIVLLFKMISTRAASGLYRAITETHAFYRCD"}, "B2": {"name": "IDOL FERM^304 (residues 1-304) (domain or fragment, UniProt Q8WY64 1-304)", "chain": "MLCYVTRPDAVLMEVEVEAKANGEDCLNQVCRRLGIIEVDYFGLQFTGSKGESLWLNLRNRISQQMDGLAPYRLKLRVKFFVEPHLILQEQTRHIFFLHIKEALLAGHLLCSPEQAVELSALLAQTKFGDYNQNTAKYNYEELCAKELSSATLNSIVAKHKELEGTSQASAEYQVLQIVSAMENYGIEWHSVRDSEGQKLLIGVGPEGISICKDDFSPINRIAYPVVQMATQSGKNVYLTVTKESGNSIVLLFKMISTRAASGLYRAITETHAFYRCDTVTSAVMMQYSRDLKGHLASLFLNEN"}, "B3": {"name": "IDOL FERM^332 (residues 1-332) (domain or fragment, UniProt Q8WY64 1-332)", "chain": "MLCYVTRPDAVLMEVEVEAKANGEDCLNQVCRRLGIIEVDYFGLQFTGSKGESLWLNLRNRISQQMDGLAPYRLKLRVKFFVEPHLILQEQTRHIFFLHIKEALLAGHLLCSPEQAVELSALLAQTKFGDYNQNTAKYNYEELCAKELSSATLNSIVAKHKELEGTSQASAEYQVLQIVSAMENYGIEWHSVRDSEGQKLLIGVGPEGISICKDDFSPINRIAYPVVQMATQSGKNVYLTVTKESGNSIVLLFKMISTRAASGLYRAITETHAFYRCDTVTSAVMMQYSRDLKGHLASLFLNENINLGKKYVFDIKRTSKEVYDHARRALYN"}, "B4": {"name": "IDOL FERM domain, residues 1-344 (FERM^344) (domain or fragment, UniProt Q8WY64 1-344)", "chain": "MLCYVTRPDAVLMEVEVEAKANGEDCLNQVCRRLGIIEVDYFGLQFTGSKGESLWLNLRNRISQQMDGLAPYRLKLRVKFFVEPHLILQEQTRHIFFLHIKEALLAGHLLCSPEQAVELSALLAQTKFGDYNQNTAKYNYEELCAKELSSATLNSIVAKHKELEGTSQASAEYQVLQIVSAMENYGIEWHSVRDSEGQKLLIGVGPEGISICKDDFSPINRIAYPVVQMATQSGKNVYLTVTKESGNSIVLLFKMISTRAASGLYRAITETHAFYRCDTVTSAVMMQYSRDLKGHLASLFLNENINLGKKYVFDIKRTSKEVYDHARRALYNAGVVDLVSRNNQ"}}, "key": {"[1]": {"molecular_target": "IDOL FERM^278 (residues 1-278) (human) (UniProt Q8WY64)", "test": "SEC-MALS; 100 μl of 100 μM protein on Superdex 200 10/300 in 20 mM MES, pH 6.8, 300 mM NaCl, 1 mM TCEP; both purified"}, "[2]": {"molecular_target": "IDOL FERM^304 (residues 1-304) (human) (UniProt Q8WY64)", "test": "SEC-MALS; 100 μl of 100 μM protein on Superdex 200 10/300 in 20 mM MES, pH 6.8, 300 mM NaCl, 1 mM TCEP; both purified"}, "[3]": {"molecular_target": "IDOL FERM^332 (residues 1-332) (human) (UniProt Q8WY64)", "test": "SEC-MALS; 100 μl of 100 μM protein on Superdex 200 10/300 in 20 mM MES, pH 6.8, 300 mM NaCl, 1 mM TCEP; both purified"}, "[4]": {"molecular_target": "IDOL FERM domain, residues 1-344 (FERM^344) (human) (UniProt Q8WY64)", "test": "SAXS; SEC-coupled SAXS, Superdex 200 Increase 3.2/300 in 20 mM MES, pH 6.8, 300 mM NaCl, 1 mM TCEP; FERM^344 injected at 9.86 mg/ml (255 μM); both purified"}, "[5]": {"molecular_target": "IDOL FERM domain, residues 1-344 (FERM^344) (human) (UniProt Q8WY64)", "test": "crystal structure; FERM^344, space group I4(1)22, one molecule in the asymmetric unit; dimer and tetramer made by crystallographic symmetry; both purified"}, "[6]": {"molecular_target": "IDOL FERM domain, residues 1-344 (FERM^344) (human) (UniProt Q8WY64)", "test": "SEC-MALS; 100 μl of 100 μM protein on Superdex 200 10/300 in 20 mM MES, pH 6.8, 300 mM NaCl, 1 mM TCEP; both purified"}}, "note": "These are yes or no findings as the source states them, for the method shown."}
{"binder": "B1", "values": [{"measurement": "binding", "setting": "[1]", "result": "no binding (tested: 100 μM)"}]}
{"binder": "B2", "values": [{"measurement": "binding", "setting": "[2]", "result": "no binding (tested: 100 μM)"}]}
{"binder": "B3", "values": [{"measurement": "binding", "setting": "[3]", "result": "no binding (tested: 100 μM)"}]}
{"binder": "B4", "values": [{"measurement": "binding", "setting": "[4]", "result": "no binding (tested: 255 μM)"}, {"measurement": "binding", "setting": "[5]", "result": "no binding"}, {"measurement": "binding", "setting": "[6]", "result": "no binding (tested: 100 μM)"}]}
